Assay results published in doi:10.1101/2022.06.19.496704.
No constants are given. Whether binding was seen depends on the method and setting. Binding seen in cells or lysates may run through a third protein.

Amino acid sequences for entries named in this document (tags omitted). A change or cut given only in a name is not applied to a line headed by its entry. Chains listed by the source or under a name are the forms on record and can include a tag or linker. Residues count along the entry.
UniProt P28023: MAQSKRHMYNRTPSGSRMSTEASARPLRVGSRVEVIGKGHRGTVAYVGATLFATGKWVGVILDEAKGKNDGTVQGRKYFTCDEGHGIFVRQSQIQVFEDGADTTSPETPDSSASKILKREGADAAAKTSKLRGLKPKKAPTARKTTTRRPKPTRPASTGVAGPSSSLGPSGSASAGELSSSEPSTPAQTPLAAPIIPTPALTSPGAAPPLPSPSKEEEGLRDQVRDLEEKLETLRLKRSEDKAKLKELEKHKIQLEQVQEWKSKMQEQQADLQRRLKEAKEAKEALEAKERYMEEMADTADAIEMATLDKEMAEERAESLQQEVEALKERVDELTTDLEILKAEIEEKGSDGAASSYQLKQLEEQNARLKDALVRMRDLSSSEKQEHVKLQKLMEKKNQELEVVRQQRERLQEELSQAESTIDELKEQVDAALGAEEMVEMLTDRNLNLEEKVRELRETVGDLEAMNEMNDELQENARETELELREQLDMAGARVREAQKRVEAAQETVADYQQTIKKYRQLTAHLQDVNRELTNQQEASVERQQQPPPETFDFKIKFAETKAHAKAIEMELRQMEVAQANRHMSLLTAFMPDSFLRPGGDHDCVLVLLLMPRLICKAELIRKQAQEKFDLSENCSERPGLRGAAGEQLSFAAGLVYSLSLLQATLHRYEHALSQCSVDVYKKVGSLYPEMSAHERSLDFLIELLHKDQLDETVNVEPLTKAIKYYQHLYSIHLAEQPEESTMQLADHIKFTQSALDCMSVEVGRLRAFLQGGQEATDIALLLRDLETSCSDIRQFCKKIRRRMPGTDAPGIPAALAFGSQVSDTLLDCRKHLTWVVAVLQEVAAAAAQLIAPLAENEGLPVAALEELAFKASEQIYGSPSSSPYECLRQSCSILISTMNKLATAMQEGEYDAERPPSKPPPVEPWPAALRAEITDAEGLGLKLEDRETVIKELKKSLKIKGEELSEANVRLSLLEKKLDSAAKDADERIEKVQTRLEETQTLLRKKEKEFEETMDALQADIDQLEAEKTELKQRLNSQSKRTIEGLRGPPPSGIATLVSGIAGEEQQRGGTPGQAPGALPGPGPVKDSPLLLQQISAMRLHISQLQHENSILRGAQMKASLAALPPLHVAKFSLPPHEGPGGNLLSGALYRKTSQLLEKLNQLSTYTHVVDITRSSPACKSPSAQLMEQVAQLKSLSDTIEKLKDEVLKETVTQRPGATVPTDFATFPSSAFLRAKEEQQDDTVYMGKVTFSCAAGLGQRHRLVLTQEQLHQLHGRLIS
AviHA-tagged p150^Glued N fragment: residues 1-490 of P28023
GST-p150^Glued C: residues 490-1278 of P28023
GST-p150^Glued C2: residues 1049-1278 of P28023
UniProt P63010: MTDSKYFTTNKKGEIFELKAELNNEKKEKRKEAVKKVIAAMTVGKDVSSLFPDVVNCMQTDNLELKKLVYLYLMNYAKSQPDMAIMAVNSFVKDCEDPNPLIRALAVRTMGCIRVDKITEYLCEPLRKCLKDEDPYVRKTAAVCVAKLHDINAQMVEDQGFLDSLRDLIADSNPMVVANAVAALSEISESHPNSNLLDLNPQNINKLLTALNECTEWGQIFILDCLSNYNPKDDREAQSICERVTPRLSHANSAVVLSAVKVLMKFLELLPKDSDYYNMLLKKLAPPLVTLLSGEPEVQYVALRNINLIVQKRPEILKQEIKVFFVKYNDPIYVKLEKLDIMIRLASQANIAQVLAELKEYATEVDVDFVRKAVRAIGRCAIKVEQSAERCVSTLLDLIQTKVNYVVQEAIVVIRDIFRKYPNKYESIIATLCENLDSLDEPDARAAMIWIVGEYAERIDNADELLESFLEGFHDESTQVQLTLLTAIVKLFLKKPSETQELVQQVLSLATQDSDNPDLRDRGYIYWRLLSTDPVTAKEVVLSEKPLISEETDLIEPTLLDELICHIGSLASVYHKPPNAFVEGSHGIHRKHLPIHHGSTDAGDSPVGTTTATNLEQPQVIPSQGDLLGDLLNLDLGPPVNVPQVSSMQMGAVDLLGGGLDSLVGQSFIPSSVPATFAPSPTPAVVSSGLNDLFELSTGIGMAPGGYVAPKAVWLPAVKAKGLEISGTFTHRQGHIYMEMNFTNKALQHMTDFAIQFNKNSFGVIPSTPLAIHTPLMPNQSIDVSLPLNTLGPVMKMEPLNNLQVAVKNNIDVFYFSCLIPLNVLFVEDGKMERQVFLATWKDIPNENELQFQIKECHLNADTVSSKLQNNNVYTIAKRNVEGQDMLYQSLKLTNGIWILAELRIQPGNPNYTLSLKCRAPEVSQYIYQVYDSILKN

Key:
Experiment in all cases: pull-down
[1] = target: AviHA-tagged p150^Glued N fragment (aa 1-490) (UniProt P28023)
[2] = target: GST-p150^Glued C (aa 490-1278) (UniProt P28023)
[3] = target: GST-p150^Glued C2 (aa 1049-1278) (UniProt P28023)

binding [1]: no binding (tested: 0.2 mg/ml)
binding [2]: no binding
binding [3]: no binding
Substance: His6-AP-2β appendage domain (from UniProt P63010) (domain or fragment)
